These are yes or no findings as the source states them, for the method shown. In cells and extracts the contact can be indirect. Some binding calls cover weakened binding; strength is not graded here. For some assays here: Tags and fused reporters may be left off the sequences shown.

By UniProt entry, the sequences of proteins in these tests, tags left out.
UniProt O43707, whole entry: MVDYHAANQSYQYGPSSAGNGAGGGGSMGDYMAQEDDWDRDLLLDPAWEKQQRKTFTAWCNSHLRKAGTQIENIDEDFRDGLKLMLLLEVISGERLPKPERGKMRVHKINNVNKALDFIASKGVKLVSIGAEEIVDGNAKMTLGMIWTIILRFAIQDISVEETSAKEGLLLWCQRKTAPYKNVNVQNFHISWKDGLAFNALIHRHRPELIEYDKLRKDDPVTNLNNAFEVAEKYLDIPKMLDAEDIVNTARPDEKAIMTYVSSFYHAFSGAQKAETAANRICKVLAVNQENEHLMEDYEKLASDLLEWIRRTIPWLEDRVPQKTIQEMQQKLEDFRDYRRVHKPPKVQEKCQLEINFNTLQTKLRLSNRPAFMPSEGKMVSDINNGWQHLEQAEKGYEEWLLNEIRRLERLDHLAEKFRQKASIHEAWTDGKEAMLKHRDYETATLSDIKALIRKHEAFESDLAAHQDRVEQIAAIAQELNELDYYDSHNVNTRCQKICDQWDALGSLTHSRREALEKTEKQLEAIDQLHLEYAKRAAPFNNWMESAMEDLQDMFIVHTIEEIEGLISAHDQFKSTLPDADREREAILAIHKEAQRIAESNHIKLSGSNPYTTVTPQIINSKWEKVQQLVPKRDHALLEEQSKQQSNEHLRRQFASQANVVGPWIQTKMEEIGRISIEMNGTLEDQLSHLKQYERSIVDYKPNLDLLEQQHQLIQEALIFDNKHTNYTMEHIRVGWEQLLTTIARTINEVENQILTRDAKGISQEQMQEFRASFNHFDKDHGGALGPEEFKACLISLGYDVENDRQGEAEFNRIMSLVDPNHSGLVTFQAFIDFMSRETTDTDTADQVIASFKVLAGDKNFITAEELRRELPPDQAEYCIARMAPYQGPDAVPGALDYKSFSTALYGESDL

Experiment [1] concerns the target T1, chaperonin containing TCP1 subunit 3 (CCT3) (human (endogenous in 97L and LM3)) (UniProt P49368).
T1 sequence: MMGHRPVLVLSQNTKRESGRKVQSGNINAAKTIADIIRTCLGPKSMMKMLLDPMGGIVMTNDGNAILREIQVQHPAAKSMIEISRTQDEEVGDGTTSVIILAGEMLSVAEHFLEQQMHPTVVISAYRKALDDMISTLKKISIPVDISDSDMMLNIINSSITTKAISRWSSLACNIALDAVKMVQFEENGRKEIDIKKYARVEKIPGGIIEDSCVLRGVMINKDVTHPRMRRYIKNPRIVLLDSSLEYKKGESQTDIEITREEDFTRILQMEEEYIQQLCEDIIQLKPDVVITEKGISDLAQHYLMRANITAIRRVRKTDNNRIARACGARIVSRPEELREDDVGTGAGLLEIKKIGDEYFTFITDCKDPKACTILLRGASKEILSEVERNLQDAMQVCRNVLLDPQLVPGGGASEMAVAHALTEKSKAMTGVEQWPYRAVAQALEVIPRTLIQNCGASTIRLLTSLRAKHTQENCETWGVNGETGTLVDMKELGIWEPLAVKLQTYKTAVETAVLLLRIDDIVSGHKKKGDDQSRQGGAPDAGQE
The experiment in a line: co-IP.

The target in the next experiment is T2, Flag-CCT3 (UniProt P49368).
T2 sequence: T1 sequence
Briefly: co-IP.

In the case of “alpha-actinin-4 (ACTN4) (from UniProt O43707 1-911)”, the binding entry in experiment [1] is “binds”.

On to Myc-ACTN4 (from UniProt O43707 1-911), for which, in the experiment with Flag-CCT3, the binding entry was “binds”.

The values above are taken from publication doi:10.1101/2023.12.14.571783.
